# Measurements as given in patent US8222267B2 (priority 2009, dated 2012).
# Test: Pharmacokinetics after single oral co-administered dose of morphine and oxycodone (about 3:2) in healthy subjects
# Details: for AUC0-∞ (dose adjusted) / Cmax: healthy subjects, n = 18; for Cmax: human, plasma, po
# Description: Values for the observed maximum plasma concentration (Cmax), total area under the plasma concentration-time curve (AUC0-∞) and the time to maximum plasma concentration (Tmax) were determined.
# [1] = single oral co-administered dose morphine/oxycodone 3 mg/2 mg
# [2] = single oral co-administered dose morphine/oxycodone 12 mg/8 mg
compound,measurement,setting,value
"CN1CC[C@]23c4c5ccc(O)c4O[C@H]2[C@@H](O)C=C[C@H]3[C@H]1C5 [Morphine, morphine]",AUC0-∞ (dose adjusted),[1],4.24 ng·h/mL/mg
same,AUC0-∞ (dose adjusted),[2],4.55 ng·h/mL/mg
same,Cmax,[1],3.9 ng/mL
same,Cmax,[2],16.1 ng/mL
same,Dose proportionality of plasma levels,"single-dose combination, 3 mg/2 mg to 12 mg/8 mg dose range, dose-normalized Cmax and AUC0-∞ within 80-125% limits",increase linearly in a dose-proportionate manner
